This assay addresses T1, Special AT-rich Binding Protein-2 (SATB2) (human (endogenous in GSCs)) (UniProt Q9UPW6).
T1 sequence: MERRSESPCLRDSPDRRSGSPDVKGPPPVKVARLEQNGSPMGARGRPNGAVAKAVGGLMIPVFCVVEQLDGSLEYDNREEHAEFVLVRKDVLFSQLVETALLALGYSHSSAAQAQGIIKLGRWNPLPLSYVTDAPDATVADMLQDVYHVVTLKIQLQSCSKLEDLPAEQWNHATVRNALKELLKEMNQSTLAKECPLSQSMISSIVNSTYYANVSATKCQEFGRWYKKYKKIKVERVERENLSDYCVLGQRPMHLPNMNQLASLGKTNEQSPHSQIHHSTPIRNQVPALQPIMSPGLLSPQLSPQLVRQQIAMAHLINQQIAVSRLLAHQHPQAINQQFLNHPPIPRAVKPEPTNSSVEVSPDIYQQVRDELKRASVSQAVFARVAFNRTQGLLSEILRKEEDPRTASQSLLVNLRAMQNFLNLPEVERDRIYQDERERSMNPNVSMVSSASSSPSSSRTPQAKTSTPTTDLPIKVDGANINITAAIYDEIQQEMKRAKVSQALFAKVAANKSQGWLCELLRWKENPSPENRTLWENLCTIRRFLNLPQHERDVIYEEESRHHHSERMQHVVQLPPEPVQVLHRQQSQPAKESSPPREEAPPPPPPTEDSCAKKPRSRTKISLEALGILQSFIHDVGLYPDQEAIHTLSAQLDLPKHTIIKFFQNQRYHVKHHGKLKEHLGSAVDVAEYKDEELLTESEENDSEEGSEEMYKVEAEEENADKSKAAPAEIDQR
The experiment in a line: co-IP; endogenous proteins in GSC lysates (IP lysis buffer); primary antibody and protein A/G Plus agarose beads overnight at 4°C; immunoblot of the precipitates. (In general: Immunoblotting shows a protein as a band on a membrane.)

Amino acid sequences for entries named in this document (tags omitted).
UniProt Q92793: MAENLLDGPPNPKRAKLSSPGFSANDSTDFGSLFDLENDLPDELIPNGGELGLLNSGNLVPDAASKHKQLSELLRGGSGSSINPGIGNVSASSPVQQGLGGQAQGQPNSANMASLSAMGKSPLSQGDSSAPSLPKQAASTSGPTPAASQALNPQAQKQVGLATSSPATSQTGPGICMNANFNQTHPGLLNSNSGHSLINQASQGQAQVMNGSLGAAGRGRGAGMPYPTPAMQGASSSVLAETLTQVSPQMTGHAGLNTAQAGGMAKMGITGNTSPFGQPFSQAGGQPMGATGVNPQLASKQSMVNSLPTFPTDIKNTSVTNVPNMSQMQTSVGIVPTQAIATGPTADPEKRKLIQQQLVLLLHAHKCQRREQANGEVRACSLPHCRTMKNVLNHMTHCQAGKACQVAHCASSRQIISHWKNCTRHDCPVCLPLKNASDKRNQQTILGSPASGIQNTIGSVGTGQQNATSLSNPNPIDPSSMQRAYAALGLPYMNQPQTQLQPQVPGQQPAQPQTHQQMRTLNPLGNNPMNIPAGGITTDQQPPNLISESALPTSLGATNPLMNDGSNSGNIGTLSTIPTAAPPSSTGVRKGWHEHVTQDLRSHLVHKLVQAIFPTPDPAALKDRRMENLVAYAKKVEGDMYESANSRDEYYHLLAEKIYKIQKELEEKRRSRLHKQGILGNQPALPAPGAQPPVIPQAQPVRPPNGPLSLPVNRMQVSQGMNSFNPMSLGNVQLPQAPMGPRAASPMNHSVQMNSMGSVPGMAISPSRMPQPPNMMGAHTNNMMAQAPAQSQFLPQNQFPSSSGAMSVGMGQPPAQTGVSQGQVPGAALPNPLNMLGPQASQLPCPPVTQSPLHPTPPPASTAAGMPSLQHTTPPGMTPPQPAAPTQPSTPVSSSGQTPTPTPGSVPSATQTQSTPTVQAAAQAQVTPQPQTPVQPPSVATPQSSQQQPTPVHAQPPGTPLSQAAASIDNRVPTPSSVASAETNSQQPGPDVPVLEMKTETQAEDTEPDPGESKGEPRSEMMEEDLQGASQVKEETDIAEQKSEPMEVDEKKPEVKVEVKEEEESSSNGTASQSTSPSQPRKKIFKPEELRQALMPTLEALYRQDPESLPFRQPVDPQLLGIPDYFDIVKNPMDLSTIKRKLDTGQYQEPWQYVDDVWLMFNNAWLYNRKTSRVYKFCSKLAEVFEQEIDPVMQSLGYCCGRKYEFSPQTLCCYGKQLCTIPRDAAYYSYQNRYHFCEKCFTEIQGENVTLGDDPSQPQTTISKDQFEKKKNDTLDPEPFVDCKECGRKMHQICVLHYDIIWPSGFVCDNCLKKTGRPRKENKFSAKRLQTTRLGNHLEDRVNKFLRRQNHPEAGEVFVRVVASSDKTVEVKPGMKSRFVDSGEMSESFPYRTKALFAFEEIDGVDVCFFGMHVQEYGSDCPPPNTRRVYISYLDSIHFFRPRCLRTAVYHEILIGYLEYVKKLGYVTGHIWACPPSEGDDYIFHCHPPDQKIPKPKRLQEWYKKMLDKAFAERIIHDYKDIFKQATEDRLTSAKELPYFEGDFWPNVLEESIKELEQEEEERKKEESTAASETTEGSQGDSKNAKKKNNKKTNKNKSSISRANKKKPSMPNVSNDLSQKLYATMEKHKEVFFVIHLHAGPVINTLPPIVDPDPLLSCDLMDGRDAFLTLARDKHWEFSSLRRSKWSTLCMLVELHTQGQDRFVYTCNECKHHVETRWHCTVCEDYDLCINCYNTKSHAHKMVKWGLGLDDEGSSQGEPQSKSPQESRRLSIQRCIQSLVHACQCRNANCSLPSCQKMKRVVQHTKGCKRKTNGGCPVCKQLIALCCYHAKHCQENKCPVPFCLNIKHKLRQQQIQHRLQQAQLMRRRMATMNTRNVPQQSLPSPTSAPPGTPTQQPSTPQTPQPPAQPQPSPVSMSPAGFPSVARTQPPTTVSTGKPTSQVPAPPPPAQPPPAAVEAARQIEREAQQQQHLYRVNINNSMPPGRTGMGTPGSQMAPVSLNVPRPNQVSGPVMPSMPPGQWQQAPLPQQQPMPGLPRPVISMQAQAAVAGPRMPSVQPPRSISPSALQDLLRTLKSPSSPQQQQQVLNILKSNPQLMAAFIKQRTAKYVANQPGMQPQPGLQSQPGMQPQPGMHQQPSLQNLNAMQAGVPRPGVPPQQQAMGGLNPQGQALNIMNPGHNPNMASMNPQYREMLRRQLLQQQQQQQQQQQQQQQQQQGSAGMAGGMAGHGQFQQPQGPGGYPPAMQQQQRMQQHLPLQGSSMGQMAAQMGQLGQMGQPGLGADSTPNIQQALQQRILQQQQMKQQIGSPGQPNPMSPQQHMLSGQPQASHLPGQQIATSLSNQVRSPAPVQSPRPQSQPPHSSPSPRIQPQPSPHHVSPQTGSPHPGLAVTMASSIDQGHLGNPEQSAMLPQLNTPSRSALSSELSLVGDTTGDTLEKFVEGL
UniProt Q09472: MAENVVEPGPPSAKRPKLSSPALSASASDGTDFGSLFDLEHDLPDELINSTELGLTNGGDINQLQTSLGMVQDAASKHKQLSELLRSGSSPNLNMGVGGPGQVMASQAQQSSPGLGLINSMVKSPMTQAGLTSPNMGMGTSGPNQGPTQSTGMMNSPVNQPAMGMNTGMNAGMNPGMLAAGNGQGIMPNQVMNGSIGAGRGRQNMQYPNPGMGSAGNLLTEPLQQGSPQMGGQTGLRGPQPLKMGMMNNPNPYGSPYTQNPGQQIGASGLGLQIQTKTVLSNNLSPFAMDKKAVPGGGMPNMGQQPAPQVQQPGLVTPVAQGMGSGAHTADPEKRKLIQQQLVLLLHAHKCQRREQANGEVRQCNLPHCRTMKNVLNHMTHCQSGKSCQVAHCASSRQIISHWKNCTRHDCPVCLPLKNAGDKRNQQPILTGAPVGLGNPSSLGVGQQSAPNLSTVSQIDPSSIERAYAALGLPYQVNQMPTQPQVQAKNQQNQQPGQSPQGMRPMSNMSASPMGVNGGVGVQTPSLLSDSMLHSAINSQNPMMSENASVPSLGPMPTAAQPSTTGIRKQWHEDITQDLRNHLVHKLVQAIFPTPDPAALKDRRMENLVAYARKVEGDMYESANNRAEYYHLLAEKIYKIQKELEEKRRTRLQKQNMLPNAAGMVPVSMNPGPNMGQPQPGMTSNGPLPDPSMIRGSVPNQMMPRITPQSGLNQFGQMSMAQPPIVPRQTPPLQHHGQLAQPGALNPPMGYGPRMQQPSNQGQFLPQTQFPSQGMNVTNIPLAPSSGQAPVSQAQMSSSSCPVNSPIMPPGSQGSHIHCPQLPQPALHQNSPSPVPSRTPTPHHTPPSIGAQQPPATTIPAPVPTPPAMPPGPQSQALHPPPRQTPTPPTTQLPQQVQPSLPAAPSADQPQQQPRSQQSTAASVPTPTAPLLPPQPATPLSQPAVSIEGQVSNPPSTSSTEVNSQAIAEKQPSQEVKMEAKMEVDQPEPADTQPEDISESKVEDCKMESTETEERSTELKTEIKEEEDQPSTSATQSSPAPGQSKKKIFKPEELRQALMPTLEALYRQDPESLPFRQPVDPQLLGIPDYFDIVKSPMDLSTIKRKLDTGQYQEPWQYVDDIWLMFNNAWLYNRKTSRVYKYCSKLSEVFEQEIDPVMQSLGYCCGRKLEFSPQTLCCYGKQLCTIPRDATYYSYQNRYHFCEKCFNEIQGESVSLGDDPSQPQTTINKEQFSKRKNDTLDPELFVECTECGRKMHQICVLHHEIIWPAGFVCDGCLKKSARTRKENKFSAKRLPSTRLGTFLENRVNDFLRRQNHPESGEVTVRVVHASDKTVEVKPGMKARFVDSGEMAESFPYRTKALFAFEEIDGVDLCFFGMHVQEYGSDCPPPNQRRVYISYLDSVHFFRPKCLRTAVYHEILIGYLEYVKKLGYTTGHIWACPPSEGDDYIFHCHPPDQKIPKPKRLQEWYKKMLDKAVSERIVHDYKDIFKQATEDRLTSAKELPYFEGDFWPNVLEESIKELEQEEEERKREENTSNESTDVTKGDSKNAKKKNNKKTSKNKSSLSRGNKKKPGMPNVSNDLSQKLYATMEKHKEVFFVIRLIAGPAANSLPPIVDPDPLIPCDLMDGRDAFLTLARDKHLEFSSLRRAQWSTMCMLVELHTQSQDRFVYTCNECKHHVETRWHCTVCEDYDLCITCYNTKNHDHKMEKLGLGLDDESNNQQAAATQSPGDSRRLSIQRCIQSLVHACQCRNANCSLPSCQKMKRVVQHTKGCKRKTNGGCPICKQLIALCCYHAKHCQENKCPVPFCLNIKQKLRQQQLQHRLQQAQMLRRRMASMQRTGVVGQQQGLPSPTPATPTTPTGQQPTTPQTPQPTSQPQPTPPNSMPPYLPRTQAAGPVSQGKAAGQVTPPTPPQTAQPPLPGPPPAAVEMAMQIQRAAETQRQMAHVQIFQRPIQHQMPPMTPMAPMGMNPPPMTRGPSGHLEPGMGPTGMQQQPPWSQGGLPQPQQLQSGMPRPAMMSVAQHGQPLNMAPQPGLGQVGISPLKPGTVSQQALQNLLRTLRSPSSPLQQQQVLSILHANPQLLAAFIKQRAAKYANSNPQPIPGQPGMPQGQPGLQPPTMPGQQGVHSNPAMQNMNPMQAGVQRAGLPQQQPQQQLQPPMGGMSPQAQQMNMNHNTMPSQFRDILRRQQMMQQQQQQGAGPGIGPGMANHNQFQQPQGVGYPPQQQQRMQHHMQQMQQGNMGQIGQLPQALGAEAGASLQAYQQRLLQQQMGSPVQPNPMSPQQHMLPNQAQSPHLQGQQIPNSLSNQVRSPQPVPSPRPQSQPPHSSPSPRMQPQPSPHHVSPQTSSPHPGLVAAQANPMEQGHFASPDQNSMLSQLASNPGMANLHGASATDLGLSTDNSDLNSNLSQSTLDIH

No constants are given. Whether binding was seen depends on the method and setting. In cells and extracts the contact can be indirect. Some results given as binding are weak or reduced against the parent protein; the word gives no strength.

Take “histone acetyltransferase CBP (from UniProt Q92793 1-2442)”: the binding result is “binds”.
The result for “histone acetyltransferase P300 (from UniProt Q09472 1-2414)” reads “no binding”.
